# About 22,000 (6.9%) of roughly 320,000 compounds were called active. The inconclusive results got no clear call from the source; some entries with a clear call stand among them for comparison. The call rests on the fitted dose curve; in most records, active means well fitted inhibition curve with a large enough effect; inconclusive means small, poorly fitted or top-dose-only effect, or another doubt; inactive means no such curve, though single readings can be large or run the other way. Potencies beside an inconclusive call are fits to weak or partial responses and may not hold up.
# Assay: Primary qHTS for delayed death inhibitors of the malarial parasite plastid, 96 hour incubation
# Settings: P. falciparum luciferase reporter growth; series mostly up to 28.7 µM
# Procedure, shortened: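 Compounds incubated with erythrocytes infected by luciferase-expressing P. falciparum (2% hematocrit, 0.05% parasitemia final) for 96 hours, 37 C in 5% CO2. Growth inhibition scored as decreased luciferase luminescence.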
# Potency means the concentration at half of the fitted maximal effect.
row,Structure (SMILES),Potency
1,C/C(Cl)=C\Cn1c(NCCc2ccccc2)nc2c1c(=O)n(C)c(=O)n2C,inactive
2,COc1ccc2[nH]c3c(c2c1)CCNC3(C)CCc1ccc(Cl)nc1 (centres undefined),"inconclusive: 18.5 µM [inhibitor, single point]"
3,N#Cc1ccc(-c2ccc(OCC(O)Cn3nnc4ccccc43)cc2)cc1 (centres undefined),"inconclusive: 11.7 µM [inhibitor, single point]"
4,COc1ccc(N2C(=O)CC(C)(C)CC2=O)cc1OC,inactive
5,CC(C)c1ccc(-c2nnn(CCC(=O)O)n2)cc1,"inconclusive: 9.28 µM [inhibitor, partial curve, poor fit]"
6,Cc1ccc(C(=O)NC2CCN(CCCC(=O)c3ccc(F)cc3)CC2)cc1,"inconclusive: 18.5 µM [inhibitor, single point]"
7,Cn1c(SCC(=O)NC2CCCC2)nnc1-c1ccccn1,"inconclusive: 18.5 µM [inhibitor, single point]"
8,COc1cc(/C=C/C(=O)N2CCc3ccccc3C2)cc(OC)c1OC,"inconclusive: 18.5 µM [inhibitor, single point]"
9,COC(=O)C1=C(C)NC2=C(C(=O)CCC2)C1c1cn(Cc2ccc(Cl)cc2Cl)nc1-c1ccccc1 (centres undefined),active: 1.85 µM
10,CC(=O)Nc1sc(C)c(C)c1C(=O)OCC(=O)Nc1cc(S(=O)(=O)N2CCCCC2)ccc1Cl,"inconclusive: 11.7 µM [inhibitor, partial curve]"
11,COc1cccc(OCCNc2ccc([N+](=O)[O-])cn2)c1,"inconclusive: 5.22 µM [inhibitor, partial curve, poor fit]"
12,CCOc1cc(S(=O)(=O)NCC2CCCO2)ccc1F (centres undefined),"inconclusive: 13.1 µM [inhibitor, single point]"
13,COc1ccc(NC(=O)C(CC(=O)O)Cc2ccccc2)cc1 (centres undefined),active: 7.38 µM
14,O=C(c1ccc2c(c1)OCO2)N1CCC2(CC1)Oc1ccc(F)cc1C(=O)C21CC(c2ccc(Cl)cc2)=NO1 (centres undefined),inactive
15,O=C(N/N=C/c1ccnc2ccccc12)c1ccccc1O,"inconclusive: 7.38 µM [inhibitor, partial curve, poor fit]"
16,COc1c(OC(C)=O)ccc(/C=C/c2ccc3cccc(OC)c3n2)c1[N+](=O)[O-],"inconclusive: 13.1 µM [inhibitor, single point]"
17,COc1ccc2c(C(=O)CN(C)C3CCCCC3)c[nH]c2c1,inactive
18,CCCN(CC(=O)Nc1ccc(Cl)cc1Cl)C(=O)CC(NC(C)=O)c1ccccc1 (centres undefined),"inconclusive: 18.5 µM [inhibitor, single point]"
19,Cn1c(=O)c2ccccc2n(Cc2ccccc2F)c1=O,"inconclusive: 5.22 µM [inhibitor, partial curve, poor fit]"
20,O=C(CCN1C(=O)/C(=C/c2ccc(F)cc2)SC1=S)NC1C=CS(=O)(=O)C1 (centres undefined),"inconclusive: 6.57 µM [inhibitor, partial curve]"
21,CCc1cc2c(cc3c(=O)n(CC(=O)N4CCN(C)CC4)ncn32)s1,"inconclusive: 0.828 µM [inhibitor, full curve]"
22,COc1ccccc1-n1cc(C(=O)NCC(=O)NCc2ccc(F)cc2)c2ccccc2c1=O,"inconclusive: 16.5 µM [inhibitor, single point]"
23,COc1cc2ncnc(NCc3ccccc3Cl)c2cc1OC,"inconclusive: 5.86 µM [inhibitor, partial curve, poor fit]"

# Shown with tabs: part of the list above
row	Structure (SMILES)	Potency
13	COc1ccc(NC(=O)C(CC(=O)O)Cc2ccccc2)cc1 (centres undefined)	active: 7.38 µM
22	COc1ccccc1-n1cc(C(=O)NCC(=O)NCc2ccc(F)cc2)c2ccccc2c1=O	inconclusive: 16.5 µM [inhibitor, single point]

# (list continues)

row,Structure (SMILES),Potency
1,O=C(O)CSc1ccc2nnc(-c3cccnc3)n2n1,"inconclusive: 18.5 µM [inhibitor, single point]"
2,N#Cc1cccc(NC(=O)Cc2ccccc2)c1,"inconclusive: 11.7 µM [inhibitor, partial curve, poor fit]"
3,Cc1cccc(N2C(=O)CS/C2=N\NC(=O)c2ccc(Br)cc2)c1C,"inconclusive: 1.85 µM [inhibitor, single point]"
4,COc1cccc(C(CNc2ccc(S(=O)(=O)N3CCN(C)CC3)cc2[N+](=O)[O-])N(C)C)c1 (centres undefined),"inconclusive: 18.5 µM [inhibitor, single point]"
5,CC1CCCN(S(=O)(=O)c2ccc(C(=O)Nc3nnc(-c4ccco4)o3)cc2)C1 (centres undefined),"inconclusive: 0.828 µM [inhibitor, partial curve, poor fit]"
6,Cn1c(CCNC(=O)c2ccco2)nc2cc([N+](=O)[O-])ccc21,active: 2.62 µM
7,COc1ccc(C(=O)CCC(=O)N2CCN(c3ccc(C)cc3)C(C)C2)cc1 (centres undefined),active: 9.28 µM
8,O=C1/C(=C/c2ccc(Cl)cc2)SC(=S)N1CCC(=O)N1CCCCC1CCO (centres undefined),active: 13.1 µM
9,Cc1cc(NS(=O)(=O)c2c(C)[nH]c(=O)[nH]c2=O)ccc1Br,"inconclusive: 16.5 µM [inhibitor, single point]"
10,CC(=O)OCCOc1nc(NC(C)C)nc(NC(C)C)n1,"inconclusive: 18.5 µM [inhibitor, single point]"
11,O=C(O)CCN1C(=O)CC(N2C(=O)/C(=C/c3ccc(Cl)cc3)SC2=S)C1=O (centres undefined),inactive
12,CCCCn1c(N)c(N(CCOC)C(=O)c2oc3ccc(OCC)cc3c2C)c(=O)[nH]c1=O,"inconclusive: 11.7 µM [inhibitor, partial curve, poor fit]"
13,CCn1c(Cc2ccccc2)nnc1SCC(=O)Nc1ccccc1N1CCOCC1,active: 3.29 µM
14,CCN(CC)S(=O)(=O)c1ccc(/C=C/C(=O)OCC#N)cc1,inactive
15,COc1ccc2cc(/C=N/NC(=O)CN(c3ccccc3C)S(=O)(=O)c3ccccc3)c(Cl)nc2c1,inactive
16,O=C(NC(=O)c1c(Cl)cccc1Cl)Nc1ccc(Oc2cccnc2)nc1,"inconclusive: 8.28 µM [inhibitor, partial curve]"
17,COc1cc(C(=O)NCC(=O)N2CCN(S(=O)(=O)c3cc(C)ccc3C)CC2)cc(OC)c1OC,"inconclusive: 0.738 µM [inhibitor, partial curve, poor fit]"
18,Cn1cccc1-c1cc(C(=O)N/N=C/c2cc(Br)ccc2O)[nH]n1,inactive
19,COc1ccc(CN2CCN(Cc3csc(C(C)=O)c3)CC2CCO)c(C)c1C (centres undefined),"inconclusive: 10.4 µM [inhibitor, single point]"
20,CN(CC(=O)Nc1ccc(F)c(F)c1F)C(=O)CCCSc1nc2ccccc2[nH]1,"inconclusive: 13.1 µM [inhibitor, single point]"
21,CCN(c1ccccc1)S(=O)(=O)c1cc(C(=O)NCc2ccccn2)ccc1C,"inconclusive: 9.28 µM [inhibitor, partial curve]"
22,COc1ccc(CS(=O)c2nc(C)cc(C)c2S(C)(=O)=O)cc1 (centres undefined),inactive
23,CSCCC(NS(=O)(=O)c1ccc2c(c1)OCCO2)C(=O)N(C)Cc1ccc(C)cc1 (centres undefined),"inconclusive: 11.7 µM [inhibitor, partial curve]"

row,Structure (SMILES),Potency
1,COc1ccc(C)cc1S(=O)(=O)N(C)CC(=O)NC1CC1,"inconclusive: 16.5 µM [inhibitor, single point]"
2,Cc1ccccc1C(=O)NNC(=O)CSc1nnc(C)n1-c1ccccc1,"inconclusive: 0.415 µM [inhibitor, partial curve, poor fit]"
3,Cc1cccc(OCCOc2ccccc2C=C(C#N)C#N)c1,inactive
4,CCCCC(=O)Nc1cccc(C(=O)Nc2ccccc2C(=O)O)c1,inactive
5,CC1CCN(c2ccc(C(=O)O)cc2N)CC1,active: 3.29 µM
6,CCCCCCn1c(CN2CCN(Cc3ccccc3)CC2)nc2c1c(=O)n(C)c(=O)n2C,inactive
7,CCOC(=O)c1ccc(N2C(=O)C3C(/C=C/c4ccccc4)OC4(C(=O)c5ccccc5C4=O)C3C2=O)cc1 (centres undefined),"inconclusive: 14.7 µM [inhibitor, partial curve, poor fit]"
8,COC(=O)CCCC1=CC2=CC(=O)C(C)(OC(=O)c3cccs3)C(=O)C2=CN1CCCOC(C)C (centres undefined),inactive
9,COc1ccc(N2CCN(CCNC(=O)C3CCN(S(=O)(=O)c4cccs4)CC3)CC2)cc1,inactive
10,COc1cc(C(C)=O)ccc1OCC(O)Cn1nc(C)c(Br)c1C (centres undefined),"inconclusive: 0.0165 µM [inhibitor, full curve, poor fit]"
11,CCOC(=O)C1=C(CC)OC(N)=C(C#N)C1c1ccc(OC)c(OC)c1OC (centres undefined),"inconclusive: 10.4 µM [inhibitor, single point]"
12,COc1ccc(-c2oc3ncnc(NCCN4CCOCC4)c3c2-c2ccc(OC)cc2)cc1,"inconclusive: 4.15 µM [inhibitor, single point]"
13,CCC1CN(C(=O)N2CCC(C(=O)NCc3ccco3)CC2)c2cc(C)ccc2O1 (centres undefined),active: 13.1 µM
14,CCOCCCn1c(=S)[nH]c2cc(C(=O)N3CCC(C(N)=O)(N4CCCCC4)CC3)ccc2c1=O,inactive
15,c1ccc2c(c1)[nH]c1ccncc12,"inconclusive: 18.5 µM [inhibitor, single point]"
16,COC(=O)c1cc(S(=O)(=O)N2CCN(c3cc(C)ccc3C)CC2)c[nH]1,"inconclusive: 11.7 µM [inhibitor, partial curve]"
17,O=C(CN(Cc1ccc(F)cc1)C(=O)c1ccco1)NCc1ccc(F)cc1,inactive
18,O=C(c1ccc(SCc2cccc(Br)c2)c([N+](=O)[O-])c1)N1CCN(c2ccccn2)CC1,"inconclusive: 18.5 µM [inhibitor, single point]"
19,O=C(NNC(=O)c1ccncc1)Nc1ccc([N+](=O)[O-])cc1,inactive
20,CCC(=O)Nc1ccc(Cl)c(NC(=S)NC(=O)COc2ccc(Cl)cc2)c1,active: 1.85 µM
21,Cc1nnc(SCC(=O)NNC(=O)C(C)C)[nH]c1=O,active: 11.7 µM
22,COc1ccnc(Oc2cc(Cl)cc(Cl)c2)c1C#N,inactive
23,COc1cc(NC(=O)C/C(C)=N/NC(=O)c2cccs2)c(OC)cc1Cl,inactive

# In the list so far, these have a Cl atom:
row,Structure (SMILES),Potency
1,C/C(Cl)=C\Cn1c(NCCc2ccccc2)nc2c1c(=O)n(C)c(=O)n2C,inactive
2,COc1ccc2[nH]c3c(c2c1)CCNC3(C)CCc1ccc(Cl)nc1 (centres undefined),"inconclusive: 18.5 µM [inhibitor, single point]"
9,COC(=O)C1=C(C)NC2=C(C(=O)CCC2)C1c1cn(Cc2ccc(Cl)cc2Cl)nc1-c1ccccc1 (centres undefined),active: 1.85 µM
10,CC(=O)Nc1sc(C)c(C)c1C(=O)OCC(=O)Nc1cc(S(=O)(=O)N2CCCCC2)ccc1Cl,"inconclusive: 11.7 µM [inhibitor, partial curve]"
14,O=C(c1ccc2c(c1)OCO2)N1CCC2(CC1)Oc1ccc(F)cc1C(=O)C21CC(c2ccc(Cl)cc2)=NO1 (centres undefined),inactive
18,CCCN(CC(=O)Nc1ccc(Cl)cc1Cl)C(=O)CC(NC(C)=O)c1ccccc1 (centres undefined),"inconclusive: 18.5 µM [inhibitor, single point]"
23,COc1cc2ncnc(NCc3ccccc3Cl)c2cc1OC,"inconclusive: 5.86 µM [inhibitor, partial curve, poor fit]"
8,O=C1/C(=C/c2ccc(Cl)cc2)SC(=S)N1CCC(=O)N1CCCCC1CCO (centres undefined),active: 13.1 µM
11,O=C(O)CCN1C(=O)CC(N2C(=O)/C(=C/c3ccc(Cl)cc3)SC2=S)C1=O (centres undefined),inactive
15,COc1ccc2cc(/C=N/NC(=O)CN(c3ccccc3C)S(=O)(=O)c3ccccc3)c(Cl)nc2c1,inactive
16,O=C(NC(=O)c1c(Cl)cccc1Cl)Nc1ccc(Oc2cccnc2)nc1,"inconclusive: 8.28 µM [inhibitor, partial curve]"
20,CCC(=O)Nc1ccc(Cl)c(NC(=S)NC(=O)COc2ccc(Cl)cc2)c1,active: 1.85 µM
22,COc1ccnc(Oc2cc(Cl)cc(Cl)c2)c1C#N,inactive
23,COc1cc(NC(=O)C/C(C)=N/NC(=O)c2cccs2)c(OC)cc1Cl,inactive
